According to PubChem BioAssay (EPA / NIEHS):
The shares of active, inactive and inconclusive entries below differ from those in the screen. Potencies beside an inconclusive call are fits to weak or partial responses and may not hold up. Some structures have more than one record in an assay (separate samples or runs), and their calls can disagree. Calls of active or inactive are those of the source. How the source made its calls: active means hit-call score of the fitted dose curve at least 0.9, where 1 is the maximum; inconclusive means response in the unintended direction; inactive means score below 0.9.

By UniProt entry, the sequences of proteins in these tests, tags left out. Where a name states a change or a piece, a line headed by the entry shows the natural chain unless it says otherwise.
UniProt O75469: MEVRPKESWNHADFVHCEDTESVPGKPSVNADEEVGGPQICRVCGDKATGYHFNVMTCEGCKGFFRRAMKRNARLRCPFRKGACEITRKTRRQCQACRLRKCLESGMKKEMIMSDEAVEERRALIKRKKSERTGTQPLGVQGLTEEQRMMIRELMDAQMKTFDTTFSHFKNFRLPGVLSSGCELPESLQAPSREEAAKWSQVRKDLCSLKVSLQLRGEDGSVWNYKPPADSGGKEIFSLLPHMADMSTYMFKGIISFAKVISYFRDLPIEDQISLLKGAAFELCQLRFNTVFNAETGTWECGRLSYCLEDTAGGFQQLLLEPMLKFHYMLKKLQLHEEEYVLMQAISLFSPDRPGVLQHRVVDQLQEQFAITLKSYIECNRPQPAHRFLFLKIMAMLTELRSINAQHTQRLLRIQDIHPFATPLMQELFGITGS

What follows are compounds tested against Nuclear receptor subfamily 1 group I member 2 (Homo sapiens) (UniProt O75469) (assay: ATG_PXR_TRANS: Attagene TRANS-FACTORIAL HepG2 Assay for human Pregnane X Receptor (PXR) (AID 2283008)).
Experimental: ATG_TRANS is a cell-based, multiplexed-readout assay that uses HepG2, a human liver cell line, with measurements taken at 24 hours after chemical dosing in a 24-well plate.ATG_PXR_TRANS is one of 30 assay component(s) measured or calculated from the ATG_TRANS assay. It is designed to make measurements of mRNA induction, a form of inducible reporter, as detected with fluorescence intensity signals by Reverse transcription polymerase chain reaction (RT-PCR) and Capillary electrophoresis technology.Data from the assay component ATG_PXR_TRANS was analyzed into 1 assay endpoint. This assay endpoint, ATG_PXR_TRANS, was analyzed in the positive analysis fitting direction relative to DMSO as the negative control and baseline of activity. Using a type of inducible reporter, measures of mRNA for gain-of-signal activity can be used to understand the reporter gene at the transcription factor-level as they relate to the gene NR1I2. Furthermore, this assay endpoint can be referred to as a primary readout, because this assay has produced multiple assay endpoints where this one serves a reporter gene function. To generalize the intended target to other relatable targets, this assay endpoint is annotated to the nuclear receptor intended target family, where the subfamily is non-steroidal.
Human liver HepG2 cells are transiently transfected with multiple reporter transcription units (MRTUs) in 6-well plates using FuGene 6 reagent (Roche; 3 ml FuGene/1 mg DNA). The MRTU constructs are regulated by a cis-regulating element (promoter). […] A major difference between the CIS and TRANS system is that in CIS activities of endogenous TFs are measured, whereas the TRANS assay evaluates changes in activities of exogenous, chimeric NR-Gal4 proteins. […] At the end of 24 hour incubation, total RNA was isolated using TriZol reagent (Invitrogen). The isolated RNA is then reverse-transcribed using oligo(dT) primer and Mo-MLV reverse transcriptase (Invitrogen) with DNAse I (Ambion) treatment for 30 min. The one-tenth of the produced cDNA was amplified by PCR using Taq DNA polymerase (Invitrogen) and two reporter sequence-specific primers. The PCR products were fluorescently labeled by primer extension with 6-arboxyfluorescein (6-FAM) 5'-labeled reporter sequence-specific primer (2 min at 95 C, 20 s at 68 C and 10 min at 72 C) and these products were digested with 5U of HpaI (New England Biolabs) for 2h at 37 C. The fragments were purified using Qiaquick PCR columns (Qiagen), analyzed on an ABI 3130xL genetic analyzer (Applied Biosystems) with peak positions identified by using a set of X-rhodamine (ROX)-labeled MapMarker1000 molecular weight standards (BioVentures). The raw capillary electrophoresis data was processed using Attagraph software (Attagene).

| Compound | outcome | AC50 |
| --- | --- | --- |
| NC(=O)c1cnccn1 | inactive |  |
| CCC1CO1 (stereo not given) |  | inconclusive: 27 µM |
| C=CC(=C)CC/C=C(\C)CCC=C(C)C |  | active: 6.93 µM |
| CC(=O)[C@@]1(O)CC[C@H]2[C@@H]3CCC4=CC(=O)CC[C@]4(C)[C@H]3CC[C@@]21C | inactive |  |
| CC1=CCCC(C)(C)C12CCC(C)O2 (stereo not given) |  | active: 2.53 µM |
| COc1ccc(Nc2ccccc2)c(C)c1 |  | active: 11.1 µM |
| C=CCCCCCCCCO | inactive |  |
| CC(=O)c1ccc[nH]1 |  | inconclusive: 0.0645 µM |
| O=C(F)C(F)(F)C(F)(F)C(F)(F)C(=O)F | inactive |  |
| CCC(C)C1N=C(C)C(C)S1 (stereo not given) |  | active: 4.45 µM |
| CC(=O)Nc1nnc(S(N)(=O)=O)s1 |  | inconclusive: 100 µM |
| CC1=NN(c2cc(Cl)c(S(=O)(=O)O)cc2Cl)C(=O)C1N=Nc1ccc(S(=O)(=O)O)cc1 (stereo not given) | inactive |  |
| COCC(=O)O |  | inconclusive: 100 µM |
| CCOC(=O)[C@H](O)[C@@H](O)C(=O)OCC |  | active: 68.2 µM |
| CCNCCO |  | inconclusive: 100 µM |
| CC(C)NCC(O)c1ccc(O)c(O)c1 (stereo not given) |  | inconclusive: 41.4 µM |
| O=P(O)(O)O |  | inconclusive: 100 µM |
| O=C(CC(C(=O)OC1CCCCC1)S(=O)(=O)O)OC1CCCCC1 (stereo not given) | inactive |  |

Part of the list above in order of SMILES length, high to low.

| Compound | outcome | AC50 |
| --- | --- | --- |
| CC(=O)[C@@]1(O)CC[C@H]2[C@@H]3CCC4=CC(=O)CC[C@]4(C)[C@H]3CC[C@@]21C | inactive |  |
| O=C(CC(C(=O)OC1CCCCC1)S(=O)(=O)O)OC1CCCCC1 (stereo not given) | inactive |  |
| CC(=O)Nc1nnc(S(N)(=O)=O)s1 |  | inconclusive: 100 µM |

(continued)

| Compound | outcome | AC50 |
| --- | --- | --- |
| O=c1c2ccccc2nnn1CCl |  | active: 5.33 µM |
| NC=O | inactive |  |
| CC(=O)Nc1ccc2c(c1)Cc1cc(NC(C)=O)ccc1-2 |  | inconclusive: 100 µM |
| O=C1CCC(=O)N1 |  | inconclusive: 100 µM |
| CC(CO)OC(C)CO (stereo not given) (tested in a mixture with another compound) | inactive |  |
| NC(N)=Nc1nc(CSCCC(N)=NS(N)(=O)=O)cs1 | inactive |  |
| CCCCCc1ccco1 |  | active: 2.75 µM |
| CCc1cccc(C)c1N | inactive |  |
| C=CC[N+](C)(C)CC=C | inactive |  |
| Nc1ccn([C@H]2CS[C@@H](CO)O2)c(=O)n1 |  | inconclusive: 179 µM |
| CCCC[N+]1(C)CCCC1 |  | inconclusive: 49.4 µM |
| OCCC(F)(F)C(F)(F)C(F)(F)C(F)(F)F |  | inconclusive: 150 µM |
| CC(=O)Oc1ccc(C(C)=O)cc1 |  | inconclusive: 1.79 µM |
| CCCCCCCCCCCCCC(=O)OCC |  | inconclusive: 100 µM |
| [O-]n1ccccc1=S.[O-]n1ccccc1=S.[Zn+2] |  | inconclusive: 0.00127 µM |
| CCCCCCC(C=O)=Cc1ccccc1 | inactive | active: 100 µM |
| C=CC(C)(CCC=C(C)C)OC(=O)CC (stereo not given) | inactive |  |
